Measured values published in patent US7452977B2, “Antibody to a kinase capable of site-specific phosphorylation of IκBα” (Millennium Pharmaceuticals, Inc., priority 1996, dated 2008).

Tests used:
IκBα = assay: Phosphorylation and ubiquitination of 35S-labeled IκBα in HeLa cell cytoplasmic extracts with okadaic acid; type: biochemical, human; details: 10 μM, in the presence of okadaic acid, FIG. 9
NF-κB = assay: Activation of NF-κB in vivo by agonists; type: cell-based; details: agonists including PMA and ionomycin, TNF-α, and LPS

**Q.** With `CN[C@@H]1C[C@H]2O[C@@](C)([C@@H]1OC)n1c3ccccc3c3c4c(c5c6ccccc6n2c5c31)C(=O)NC4` [Staurosporine] as the compound, how does the “inhibition of phosphorylation and ubiquitination of IκBα in HeLa cell extracts” value (IκBα) read?
**A.** The value was “Inhibit”.

**Q.** What about the “inhibition of phosphorylation and ubiquitination of IκBα in HeLa cell extracts” value (IκBα; listed as staurosporine) of the same compound?
**A.** The value was “inhibit”.

**Q.** And the “inhibition of the activation of NF-κB in vivo” value (NF-κB)?
**A.** The value was “inhibit the activation of NF-κB in vivo”.
